# PubChem BioAssay AID624150, Cancer Research UK Cambridge | 2012
# Assay: 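Find chromatin regulators that change keratinocyte differentiation across several stimuli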 (primary screen)
# Cell system: primary human epidermal keratinocytes
# Reagents: siRNA pool against human genes, 1-2 µM siRNA in 20 µl nucleofection
# Time to read-out: 72 h after transfection plus 48 h differentiation (about 5 days)
# Treatment: five arms for 48 h: vehicle, AG1478 10 µM, BMP2/7 200 ng/ml, both together, or 10% serum
# Read-out: 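Per-cell amount of a differentiation marker read by infrared scanning of the plate, given as a z-score within each plate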
# Direction: z-score, vehicle and z-score, AG1478 10 µM and z-score, BMP2/7 200 ng/ml and z-score, AG1478 with BMP2/7 and z-score, 10% serum: higher = more differentiation marker per cell
# Here is one part, drawn at random, of 331 deposited reagents. 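Each arm had three replicate z-scores, but only the first replicate is printed; higher values mean more differentiation marker per cell.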
gene knocked down,"z-score, vehicle","z-score, AG1478 10 µM","z-score, BMP2/7 200 ng/ml","z-score, AG1478 with BMP2/7","z-score, 10% serum"
PHF6 (PHD finger protein 6),0.661,0.0804,0.194,0.269,0.404
BAZ1A (bromodomain adjacent to zinc finger domain 1A),0.761,1.02,-0.0712,0.4,-0.578
KAT2B (lysine acetyltransferase 2B),1.02,-0.845,0.256,-0.372,0.339
SIRT6 (sirtuin 6),-1.3,-0.77,-0.874,-0.372,-0.829
CDYL2 (chromodomain Y like 2),0.529,0.645,0.876,-0.286,0.881
HIF1AN (hypoxia inducible factor 1 subunit alpha inhibitor),-0.307,0.321,0.723,0.632,-0.121
HAT1 (histone acetyltransferase 1),-0.025,-0.671,-0.857,0.0843,0.151
SHMT2 (serine hydroxymethyltransferase 2),-0.5,-0.297,-0.541,-0.312,0.304
L3MBTL4 (L3MBTL histone methyl-lysine binding protein 4),-1.02,0.0266,0.0331,0.262,0.498
MTA2 (metastasis associated 1 family member 2),-2.5,-0.367,0.273,0.0904,-0.508
PRDM15 (PR/SET domain 15),-0.489,-0.306,-0.511,-0.647,-0.584
KDM5A (lysine demethylase 5A),0.552,-0.362,-0.523,0.475,-0.134
EP400 (E1A binding protein p400),-2,-1.81,-1.51,-1.89,-3.71
MTA1 (metastasis associated 1),-0.837,-0.142,-0.971,1.76,-0.134
BAHCC1 (BAH domain and coiled-coil containing 1),0.768,0.462,0.196,0.373,-0.404
ZMYND8 (zinc finger MYND-type containing 8),-0.726,-0.59,0.24,-0.672,-0.141
"MBD4 (methyl-CpG binding domain 4, DNA glycosylase)",0.512,0.33,-0.684,0.446,-0.384
PHF21A (PHD finger protein 21A),2.15,2.09,1.1,1.36,0.734
HDAC8 (histone deacetylase 8),1.1,-0.987,-1.84,-0.453,-0.584
SUV39H2 (SUV39H2 histone lysine methyltransferase),-0.0678,-0.228,0.31,-0.369,-0.254
EHMT2 (euchromatic histone lysine methyltransferase 2),-0.865,-0.43,-0.874,-0.26,-1.14
KMT2D (lysine methyltransferase 2D),-1.43,-0.97,-1.05,-0.571,-0.15
RAI1 (retinoic acid induced 1),-0.655,-0.732,-0.608,-0.0593,-0.229
MECP2 (methyl-CpG binding protein 2),0.662,-0.608,-1.04,-0.431,0.238
HLTF (helicase like transcription factor),-0.0139,-0.681,-0.499,-0.129,0.277
DIDO1 (death inducer-obliterator 1),-0.989,-0.775,-0.16,-0.412,-1.13
CHD1 (chromodomain helicase DNA binding protein 1),0.0323,0.89,-0.0843,-0.0478,0.0938
PYGO1 (pygopus family PHD finger 1),0.466,-0.0568,0.353,-0.162,0.574
KDM4C (lysine demethylase 4C),-0.297,-0.286,0.0832,0.188,-0.529
KDM6B (lysine demethylase 6B),-2.2,1.17,1.91,2.01,1.55
CHD5 (chromodomain helicase DNA binding protein 5),-0.73,-0.164,-0.556,-0.0731,-0.52
CHD3 (chromodomain helicase DNA binding protein 3),-1,-1.61,-1.54,-1.1,-1.79
"SUPT7L (SPT7 like, STAGA complex subunit gamma)",-1.01,-1.07,-1.16,-0.11,-0.845
HDGFL3 (HDGF like 3),-1.12,-0.99,-1.78,-1.01,-0.865
NSD2 (nuclear receptor binding SET domain protein 2),-0.113,-0.484,0.874,-0.209,-0.375
KMT2C (lysine methyltransferase 2C),-0.615,-1.62,-0.608,-1.72,-0.378
SETDB1 (SET domain bifurcated histone lysine methyltransferase 1),-0.832,-0.633,-0.718,0.0758,-0.531
BRPF1 (bromodomain and PHD finger containing 1),0.78,0.236,0.548,-0.0976,0.489
TRDMT1 (tRNA aspartic acid methyltransferase 1),0.661,0.438,0.56,0.479,0.75
BRDT (bromodomain testis associated),-1.86,-2.34,-1.95,-3.6,-2.6
JADE3 (jade family PHD finger 3),-0.429,0.633,-0.848,0.292,-0.388
CBX8 (chromobox 8),1.01,1.06,1.21,0.741,0.683
TDRD3 (tudor domain containing 3),-0.142,-0.443,-0.357,-0.391,0.53
BRD8 (bromodomain containing 8),1.31,0.455,1.27,-0.411,1.09
MSL3 (MSL complex subunit 3),-0.516,-0.862,-0.187,-0.782,-0.412
SMARCA1 (SNF2 related chromatin remodeling ATPase 1),-0.248,-0.412,-0.486,0.143,0.0914
HDGF (heparin binding growth factor),-1.14,-1.56,-1.06,-1.17,-0.54
THUMPD2 (THUMP domain 2 tRNA and snRNA guanosine methyltransferase),1.88,1.89,1.9,0.195,0.535
SND1 (staphylococcal nuclease and tudor domain containing 1),0.0268,-0.174,-0.931,0.683,0.325
TDRD6 (tudor domain containing 6),0.424,-0.0483,-0.12,0.00913,0.0907
